Experimental findings from US20060147420A1 (University of Texas, published 2006) are described below.

The chains behind the UniProt entries cited, without tags or fusion partners. Residues count along the entry.
UniProt Q02763, residues 23-1124: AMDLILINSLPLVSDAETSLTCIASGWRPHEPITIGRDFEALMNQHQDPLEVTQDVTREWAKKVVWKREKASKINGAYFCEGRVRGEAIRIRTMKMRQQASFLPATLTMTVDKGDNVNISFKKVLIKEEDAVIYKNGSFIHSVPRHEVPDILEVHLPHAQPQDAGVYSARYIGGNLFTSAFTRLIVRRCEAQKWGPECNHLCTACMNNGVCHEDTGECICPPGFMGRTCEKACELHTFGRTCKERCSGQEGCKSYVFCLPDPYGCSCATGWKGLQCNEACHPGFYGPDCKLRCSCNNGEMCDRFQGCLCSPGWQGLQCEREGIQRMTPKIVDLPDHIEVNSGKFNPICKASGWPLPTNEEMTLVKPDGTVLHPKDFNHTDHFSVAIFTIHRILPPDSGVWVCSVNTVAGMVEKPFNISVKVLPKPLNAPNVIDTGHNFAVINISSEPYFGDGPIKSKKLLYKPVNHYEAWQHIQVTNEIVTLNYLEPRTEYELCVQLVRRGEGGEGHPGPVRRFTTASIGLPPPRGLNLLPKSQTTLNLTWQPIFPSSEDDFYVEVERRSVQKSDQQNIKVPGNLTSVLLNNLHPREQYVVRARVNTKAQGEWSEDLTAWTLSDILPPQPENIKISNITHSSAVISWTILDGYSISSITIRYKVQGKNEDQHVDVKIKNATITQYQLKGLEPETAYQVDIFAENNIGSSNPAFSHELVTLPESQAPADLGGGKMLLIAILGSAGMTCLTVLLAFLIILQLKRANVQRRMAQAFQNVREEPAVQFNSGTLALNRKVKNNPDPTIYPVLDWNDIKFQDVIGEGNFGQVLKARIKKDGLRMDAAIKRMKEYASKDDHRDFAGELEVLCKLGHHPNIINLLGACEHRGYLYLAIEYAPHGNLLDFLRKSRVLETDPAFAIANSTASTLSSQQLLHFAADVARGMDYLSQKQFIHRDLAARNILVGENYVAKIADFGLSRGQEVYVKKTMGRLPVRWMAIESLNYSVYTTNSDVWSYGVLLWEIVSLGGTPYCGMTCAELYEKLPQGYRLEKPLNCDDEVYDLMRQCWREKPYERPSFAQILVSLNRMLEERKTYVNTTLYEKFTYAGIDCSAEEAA

Results are given in words; binding and its absence hold for the method and conditions named. Some binding calls cover weakened binding; strength is not graded here.

The target in test [1] is T1, Dok-R protein (UniProt O60496).
T1 sequence (looked up): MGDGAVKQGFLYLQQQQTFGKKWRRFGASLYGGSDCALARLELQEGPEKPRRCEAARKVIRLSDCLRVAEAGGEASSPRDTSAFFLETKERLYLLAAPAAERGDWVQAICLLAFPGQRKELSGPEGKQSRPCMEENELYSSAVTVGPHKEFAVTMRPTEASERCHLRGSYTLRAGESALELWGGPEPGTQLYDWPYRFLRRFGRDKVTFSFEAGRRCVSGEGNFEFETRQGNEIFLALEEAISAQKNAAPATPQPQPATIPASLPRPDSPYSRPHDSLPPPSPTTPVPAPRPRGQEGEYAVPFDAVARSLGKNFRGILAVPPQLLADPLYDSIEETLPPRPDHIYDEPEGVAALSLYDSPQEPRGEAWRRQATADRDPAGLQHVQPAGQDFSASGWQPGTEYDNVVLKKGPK
In words: association in stably transfected Tie2-U-251 MG cells after Ang1 stimulation (method not detailed).

Test [2] has as its target T1, Dok-R protein. The experiment in a line: restatement of the inventors' finding in glioma cells.

As for “Tie2 receptor (on or in glioma and endothelial cells) (from UniProt Q02763 23-1124)”, the binding result with Dok-R protein [1] and with Dok-R protein [2] was “binds” each time.
